# Primary screen of a compound library

Protein sequences, listed by entry. Tags and fused reporters are not part of them.
UniProt E9BF75, entry or part of it: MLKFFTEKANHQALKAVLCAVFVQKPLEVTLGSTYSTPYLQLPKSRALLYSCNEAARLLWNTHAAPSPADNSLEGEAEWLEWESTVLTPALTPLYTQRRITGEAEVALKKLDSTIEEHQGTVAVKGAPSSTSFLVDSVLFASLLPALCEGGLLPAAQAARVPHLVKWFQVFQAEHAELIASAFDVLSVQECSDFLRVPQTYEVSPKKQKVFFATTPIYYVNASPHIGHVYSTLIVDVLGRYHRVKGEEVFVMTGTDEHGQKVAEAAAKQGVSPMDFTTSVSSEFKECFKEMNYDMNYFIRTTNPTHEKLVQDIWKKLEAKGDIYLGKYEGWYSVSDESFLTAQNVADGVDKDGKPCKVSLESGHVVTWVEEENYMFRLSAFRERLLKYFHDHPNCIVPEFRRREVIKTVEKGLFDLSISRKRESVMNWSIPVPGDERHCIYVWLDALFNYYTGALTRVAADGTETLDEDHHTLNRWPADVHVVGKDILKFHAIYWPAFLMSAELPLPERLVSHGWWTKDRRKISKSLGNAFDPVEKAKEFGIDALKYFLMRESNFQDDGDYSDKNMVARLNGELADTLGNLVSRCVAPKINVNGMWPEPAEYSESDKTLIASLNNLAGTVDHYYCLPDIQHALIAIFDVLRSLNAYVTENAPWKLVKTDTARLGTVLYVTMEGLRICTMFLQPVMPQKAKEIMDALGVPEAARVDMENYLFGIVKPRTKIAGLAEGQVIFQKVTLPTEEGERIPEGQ

Data taken from ChEMBL document CHEMBL3988442, “University of Dundee, Small-Polar-MMV Screening Library” (2021).

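Primary screen of methionyl-tRNA synthetase; the read-out is not stated. Target: Methionyl-tRNA synthetase (putative), Leishmania donovani (UniProt E9BF75). The test concentration is not given. Values are per cent inhibition. About 68,000 compounds were tested under these conditions; 0.035% (about 24) showed 50% or more at least once.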

Results are percentages, as filed.
The controls that fix the scale are not given in the record; negative values are as filed.
Compounds were drawn at random from those tested, without regard to their results.

| compound | Inhibition |
|---|---|
| `CCc1noc(CN2CCN(CCO)CC2)n1` | 7.368% |
| `Cc1cc(-c2ccc(C(=O)O)cc2)nc(C2CCCN(C(C)C)C2)n1` (stereo not shown) | 15.03% |
| `CCCC1(NC(=O)C(c2ccccc2C)N(C)C)CC1` (stereo not shown) | 6.923% |
| `C[C@H](NC(=O)c1cccc(CCC(C)(C)O)c1)C(N)=O` | 9.045% |
| `O=C(CC1CC2(CCN(CC3CC3)CC2)c2ccccc21)NC1CCC1` (stereo not shown) | 5% |
| `COc1ccc(CN2C[C@@H]3COC[C@]3(CN(C)C)C2)cc1` | 12.45% |
| `Cc1cc(C)n(CC2CN(CC(=O)N3CCNC3=O)CCO2)n1` (stereo not shown) | 9.972% |
| `Cc1[nH]c2c(C)cccc2c1CC(=O)N(C)CCN(C)C` | 12.81% |
| `CC1Cc2ccccc2N1C(=O)Cn1nc(-c2cccs2)ccc1=O` (stereo not shown) | 21.52% |
| `c1cnc(N2CCC3(CC2)CN(CC2CC2)c2ccccc23)nc1` | 9.764% |
| `CCN(Cc1nc2c(cnn2C)c(=O)[nH]1)c1cccc(C)c1C` | 7.652% |
| `CC1(C)CC(CN2CCC3(CCC(=O)N(C4CCC4)C3)CC2)CCO1` (stereo not shown) | 14.2% |
| `COc1ccccc1CN1CC(O)CN(C(=O)OCC(C)C)CC1=O` (stereo not shown) | 8.378% |
| `O=C(NCc1ccccn1)[C@@H]1CCO[C@@H]2CCN(Cc3ccoc3)C[C@H]21` | 18.52% |
| `Cc1nccc(CNS(=O)(=O)N2CCCC2c2ccc(C)o2)n1` (stereo not shown) | 12.2% |
| `CC(=O)NCCC(=O)Nc1cccc(N2CCN(CC3CC3)CC2)c1` | 22.1% |
| `COc1ccc(CNC(=O)NCc2c(C)cc(C)[nH]c2=O)cc1` | 12.6% |
| `CN1CCN(C[C@@H]2OC[C@H]3CN(Cc4ccsc4)CC[C@H]32)CC1` | 5.439% |
| `CCN1CCN(C(=O)NCc2ccccc2Cn2cncn2)CC1` | 5.584% |
| `CC(C)c1nn(C)c(N(C)C)c1CNCc1ccccc1CN(C)C` | 15.31% |
| `CC(Nc1ccn(CCS(C)(=O)=O)n1)c1ccc(C#N)cc1` (stereo not shown) | 10.14% |
| `O=C(C1CCCCC1)N1CCO[C@@H]2CNC[C@@H]21` | -5.263% |
| `CCC1CCCCN1CCNC(=O)N1CCN(Cc2ccon2)CC1` (stereo not shown) | 19.1% |
| `c1coc(CN2C[C@H](OCC3CCOCC3)[C@H]3COC[C@H]32)c1` | 18.52% |
| `Cc1cc(C2CCCN(C(=O)CCc3cscn3)C2)n[nH]1` (stereo not shown) | 17.61% |
| `CCc1nnc2n1CCN(Cc1csc(-c3ccccc3F)n1)C2` | 14.61% |
| `Cc1cnn(CC2CCCCN2CC(=O)Nc2c(C)n[nH]c2C)c1` (stereo not shown) | 16.67% |
| `OCCN1CCC(Cc2nccs2)CC1` | 3.438% |
| `CN(C)C(C(=O)N1CCN(S(N)(=O)=O)CC1)c1ccccc1F` (stereo not shown) | 16.85% |
| `CN(C)C(=O)N1CCN(C(=O)c2ccc(Cl)c(Cl)c2)C(C)(C)C1` | 7.463% |
| `Cc1nnc(NC(=O)NCCCN2CCC(C(N)=O)CC2)s1` | 19.81% |
| `CCOCC(O)CN1CCN(C(=O)c2cc(F)cc(F)c2)CC1` (stereo not shown) | 13.64% |
| `O=C(NCc1cc[nH]n1)NCC(O)c1ccc(F)c(F)c1` (stereo not shown) | 13.86% |
| `O=C(NCCn1nc2ccccn2c1=O)c1cccc2[nH]ncc12` | 7.975% |
| `COC(=O)c1cccc(NC(=O)CCn2nc(-c3cccs3)oc2=O)c1` | 4.127% |
| `Cc1ccc(CN2CCN(Cc3ccc(N(C)C)nc3)CC2=O)cc1C` | 14.83% |
| `O=C(CCCc1cn[nH]c1)N1C[C@@H](CN2CCCC2)C[C@H](CO)C1` | -0.5333% |
| `Cc1ccc(-c2noc(CN3CCOC(Cn4cccn4)C3)n2)cc1` (stereo not shown) | 20.22% |

The last 4 entries again:

- COC(=O)c1cccc(NC(=O)CCn2nc(-c3cccs3)oc2=O)c1 | 4.127%
- Cc1ccc(CN2CCN(Cc3ccc(N(C)C)nc3)CC2=O)cc1C | 14.83%
- O=C(CCCc1cn[nH]c1)N1C[C@@H](CN2CCCC2)C[C@H](CO)C1 | -0.5333%
- Cc1ccc(-c2noc(CN3CCOC(Cn4cccn4)C3)n2)cc1 (stereo not shown) | 20.22%